Data: the supplement of paper PMC3334620
Over roughly 33,000 sequences, “E-score (-0.5 to 0.5)” has its median near -0.016; the highest 2% begin near 0.3. The list shows a part of the results.

Each sequence was assayed against T1, Yer184c (UniProt P39961) (assay: PBM E-score (8-mer binding enrichment) (E-score (-0.5 to 0.5)); higher = stronger / more preferred TF binding). Details: protein concentration: 100 nM; construct: GST-full length.
T1 sequence: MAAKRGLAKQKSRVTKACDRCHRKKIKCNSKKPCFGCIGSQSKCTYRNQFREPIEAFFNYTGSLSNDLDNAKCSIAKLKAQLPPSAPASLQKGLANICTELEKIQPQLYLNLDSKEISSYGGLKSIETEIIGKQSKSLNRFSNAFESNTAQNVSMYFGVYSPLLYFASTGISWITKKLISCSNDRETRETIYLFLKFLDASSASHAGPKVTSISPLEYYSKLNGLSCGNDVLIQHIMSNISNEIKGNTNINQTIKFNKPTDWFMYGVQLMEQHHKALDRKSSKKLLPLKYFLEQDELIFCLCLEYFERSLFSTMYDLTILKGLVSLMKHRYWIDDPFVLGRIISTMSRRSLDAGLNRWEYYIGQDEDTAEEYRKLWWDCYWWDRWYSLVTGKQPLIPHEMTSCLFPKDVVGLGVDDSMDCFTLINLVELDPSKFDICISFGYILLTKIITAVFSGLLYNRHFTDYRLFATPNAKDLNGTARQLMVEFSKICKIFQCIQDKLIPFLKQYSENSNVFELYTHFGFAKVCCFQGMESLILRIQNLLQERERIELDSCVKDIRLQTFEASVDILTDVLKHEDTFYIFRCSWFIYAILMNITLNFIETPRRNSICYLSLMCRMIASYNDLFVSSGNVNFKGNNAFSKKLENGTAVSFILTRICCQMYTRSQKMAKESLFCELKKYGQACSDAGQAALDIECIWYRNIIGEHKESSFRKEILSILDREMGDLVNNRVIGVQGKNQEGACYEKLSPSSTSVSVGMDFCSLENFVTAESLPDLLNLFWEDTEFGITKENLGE
In short: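 Yeast transcription factors carrying a GST tag, as full-length proteins or DNA-binding domains, were produced by PURExpress in vitro transcription/translation. About 100-200 nM protein was applied to universal all-10-mer Agilent arrays, double-stranded by primer extension on fresh or once-stripped slides. Bound protein was detected with fluorescent anti-GST, and scans were normalised with masliner. The Universal PBM Analysis Suite gave each ungapped eight-base word, pooled with its reverse complement, an E-score, a modified Wilcoxon-Mann-Whitney statistic.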

Sequence | PBM E-score
GATCACAA | 0.114
ATATACAA | 0.219
TATCAAAA | 0.152
CTCGTCAC | 0.172
ACTACATC | -0.0349
CAACTTTA | 0.126
GAAACGGC | 0.131
CCAAGCAC | -0.204
GCCCGAGA | 0.24
GGACGAAC | 0.254
AAATAATG | 0.164
CCGAATAC | 0.293
GCTAAGCA | -0.0771
CGTTGTAA | -0.0356
GTAAGATA | 0.175
ACCCTGGC | -0.231
AACGTAGT | -0.00554
ATATGGTA | 0.00546
CACATTGA | 0.0556
GGCTCATA | -0.0301
CATTCCGA | 0.278
CTGATAGC | -0.0696

Sequence | PBM E-score
GGGGCCCA | -0.29
CAAATCAG | 0.0212
TACGACGA | -0.0411
ACCCCAAA | -0.136
AGCACCTC | -0.065
CCTAAATA | -0.0799
AACAAGGG | -0.109
ATATTTCA | 0.201
AAGATCTG | 0.0471
CTCCCAAA | 0.0357
CGCATCAA | 0.0995
AAAATGGT | 0.195
AAACAAAC | 0.141
ATTGACCC | 0.0514
ACTCAACG | -0.0289
ACGGCGCT | -0.0793
ACTTAAGG | 0.0766
ATAGGTGG | -0.193
AAACCGTG | -0.00637
ACTTTTGG | 0.0221
TATCCATA | 0.133
CCGTTACA | 0.147

Sequence | PBM E-score
CCTGCAGC | -0.0738
GCCGCATA | 0.185
AGTTAGTG | 0.00554
AAATAGAT | 0.243
TATCGGGA | 0.105
TGCCAACA | 0.0644
TGTAGGAA | -0.0799
ATGTCCTA | -0.0127
ACATCCCT | 0.00032
AAATACCG | 0.271
AGGTTGAA | 0.0439
CACGTCCC | -0.261
AAGAGCTG | -0.0953
TTATAGAA | 0.202
CGCCACAG | -0.186
AGGCCCAA | -0.0831
ATTGAAAG | 0.014
CCGAAATA | 0.34
CCTGTTTC | -0.115
AGCAGTCA | -0.198
CGATTCCG | 0.218
CTCGTAGA | -0.253

Sequence | PBM E-score
AGCTTACA | 0.0783
TAGCGGCA | 0.136
GGGAGGAA | 0.0275
AAACCAGC | 0.0764
GAAGTGGA | 0.0603
ACCGGCGA | 0.284
CTCTATAA | 0.0398
CATATAGG | -0.0617
TACTGACA | 0.146
ATAAGCAC | -0.0228
ACTGTGAT | -0.0878
AAACTATC | 0.144
ACATCATC | -0.102
CTGGGTGC | -0.325
GGCCAATA | -0.0246
GAGAGCTA | -0.106
AACGACGA | 0.121
GAAGATGA | -0.00959
ACCGTACA | 0.0254
GTACGCCA | -0.241

A few values from above.
Value of GTACGCCA under PBM E-score: -0.241
Value of AAACCGTG under PBM E-score: -0.00637
Value of AGCAGTCA under PBM E-score: -0.198
Value of TATCCATA under PBM E-score: 0.133
Value of AGCTTACA under PBM E-score: 0.0783
